Experimental data published in patent US9952300B2, “Dynamic contrast enhanced MRI method and agents for the assessment of the macromolecular transport within pathologic tissues” (BRACCO IMAGING S.P.A., priority 2012, dated 2018).
At least one compound was matched to its structure with a doubt left.

Tested on: PC-3 human prostate adenocarcinoma tumor
Assay: DCE-MRI of contrast agent kinetics in PC-3 tumors of Axitinib- or vehicle-treated mice (Example 3)
Assay type: in vivo, NCR athymic nude mice
Text: The comparative test has been performed using NCR athymic nude mice implanted with PC-3 cells (a human prostate cancer line) and treated with Axitinib®, a VEGFRs inhibitor, (to modulate the tumor vascular permeability) by a protocol which timing is for instance schematized in FIG. 1. Scope of the test was to compare the image-based analysis of the albumin distribution in a human tumor model as extracted from the analysis of a time-serie of MRI images (with spatial resolution of around 110 μm) acquired with the method of the invention after injection of B22956/1 as contrast agent, and the distribution of FITC-BSA (Fluorescent isothiocyanate Bovine Serum Albumin) albumin inside and outside vessels histologically determined from fluorescent microscopy images on a scale of microns.
In particular, the trans-endothelial permeability (K^Trans) and the fractional plasma volume (fPV) were calculated from dynamic MR data by application of a bi-compartmental pharmacokinetic model, while the Initial Area Under the Curve (IAUCT) was calculated in several time windows, typically comprised between the contrast agent administration and the end of the MRI acquisition. […] Microscopic images were used to quantify the percentage of area stained by fluorescent albumin in the tumor, as a measure of the blood vessel density, using an automatic thresholding method. […]

CNC(=O)c1ccccc1Sc1ccc2c(/C=C/c3ccccn3)n[nH]c2c1 [Axitinib]
k^trans measured with B22956/1 post treatment, treated versus control (rim of treated tumors, Axitinib 25 mg/kg i.p. daily): lower | IAUCET/IAUCT parameters over time measured with B22956/1, treated versus control (treated tumors, MRI acquisition at least 5 minutes post contrast agent injection): lower values
